At least one structure is not confirmed: it was looked up by name or label, or the drawing left a doubt.
Biological target: RAS/CRAF (Homo sapiens, UniProt P04049)
Assay: Dimerization in response to GDC0879 in HEK293T cells (Example 129)
Conditions: 0 to 10 μM, 4 h

SMILES: OCCn1cc(-c2ccc3c(c2)CC/C3=N\O)c(-c2ccncc2)n1 [GDC0879]
- RAS/CRAF dimerization: dose dependent increase

— patent US12366572B2, “Activation of bioluminescence by structural complementation” (Promega Corporation, priority 2013, dated 2025)
